In PubChem BioAssay AID504834 (National Center for Advancing Translational Sciences (NCATS), 2011):
Hit rate of the full screen: of about 320,000 compounds, about 22,000 (6.9%) were called active. The shares of active, inactive and inconclusive entries below differ from those in the screen. The call rests on the fitted dose curve; in most records, active means well fitted inhibition curve with a large enough effect; inconclusive means small, poorly fitted or top-dose-only effect, or another doubt; inactive means no such curve, though single readings can be large or run the other way. Potencies of inconclusive entries are doubtful fits and often do not repeat.

Assay: Primary qHTS for delayed death inhibitors of the malarial parasite plastid, 96 hour incubation
Settings: P. falciparum luciferase reporter growth; series mostly up to 28.7 µM
Procedure, shortened: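 Erythrocytes infected with luciferase-expressing P. falciparum were dispensed at 2% hematocrit and 0.05% parasitemia (final), then incubated with compounds 96 hours at 37 C in 5% CO2. Luminescence after detection reagent addition reported growth.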
On the % scale 0 is the no-effect control and ±100 the full control effect; potency means the concentration at half of the fitted maximal effect.

SMILES | Potency | activity change, negative = inhibition
C/C=C\C=C/C(=O)Nc1cccc(C2=NOC3(C2)C[C@@H](C(N)=O)N(C(=O)/C=C/C=C\C)C3)c1 (some centres undefined) | inconclusive: 0.0047 µM [inhibitor, full curve, poor fit] | 
CC(=O)Nc1cccc(NC(=O)CSc2nccn2Cc2ccco2)c1 | inconclusive: 18.5 µM [inhibitor, single point] | 
COc1ccc(CC(=O)N2CCC(Nc3nc4ccccc4n3Cc3ccc(F)cc3)CC2)cc1 | active: 9.28 µM | 
S=C(c1ccc(-c2ccc(Cl)cc2Cl)o1)N1CCCC1 | inconclusive: 1.17 µM [inhibitor, partial curve, poor fit] | 
Cc1ncc(CN2CCCC(C(=O)Nc3ccc(-c4cccc(F)c4)cc3)C2)cn1 (centres undefined) | inconclusive: 23.3 µM [inhibitor, partial curve, poor fit] | 
CC1=CC=CN2C1=NC(=O)CC2(C)C(=O)N(CC(=O)NC1CCCC1)c1cc(C)cc(C)c1 (centres undefined) | inconclusive: 7.38 µM [inhibitor, single point] | 
COC(=O)Cn1cnc2scc(-c3ccc(C)c(C)c3)c2c1=O | active: 10.4 µM | 
COC(=O)c1ccc(C23CC4(C2)[C@H](CN(Cc2ccc(-c5ccccc5)cc2)[C@@H]4c2ccccc2)C3c2ccc(Cl)nc2)cc1 (some centres undefined) | inconclusive: 16.5 µM [inhibitor, single point] | 
O=C(Nc1ccc(Cl)c(Cl)c1)N(CCCN1CCOCC1)Cc1cccnc1 | inconclusive: 18.5 µM [inhibitor, partial curve, poor fit] | 
O=C(C[N+]12CCC(CC1)C(CO)C2)c1ccc(Br)cc1 (centres undefined) | inactive | 
O=C1CSC(c2ccc(F)c(F)c2)N1c1ccccc1F (centres undefined) | inconclusive: 7.38 µM [inhibitor, partial curve] | 
Cc1cccc(NC(=O)c2cc3c(=O)n4ccccc4nc3n(CC(C)C)c2=N)c1 | inconclusive: 3.7 µM [inhibitor, single point] | 
COc1ccc(CCn2c(N)c(S(=O)(=O)c3cccs3)c3nc4ccccc4nc32)cc1OC | inconclusive: 11.7 µM [inhibitor, single point] | 
O=C(O)c1ccc(C(=O)Nc2ccc(F)cc2)cc1 | inactive | 
CCN=C1SC(CC(=O)NC(N)=O)C(=O)N1CC (centres undefined) | inconclusive: 10.4 µM [inhibitor, single point] | 
CC(=O)N1CCN(C(=O)c2cccc(S(=O)(=O)N3CCN(c4ccccc4)CC3)c2)CC1 | inactive | 
O=C(NCCSCc1c(F)cccc1Cl)c1ccco1 |  | inactive: -20.1% [at 5.75 µM]
CCOc1ccc(CN(C)C(=O)c2cc(S(=O)(=O)N3CCCC3)ccc2C)cc1 | inconclusive: 9.28 µM [inhibitor, partial curve] | 
O=C(CSc1ccccc1C(=O)O)c1ccc(Cl)cc1 | inactive | 
Cc1cc(O)c(C(=O)/C=C/c2ccccc2Br)c(=O)o1 | inactive | 
O=C(COC(=O)CNC(=O)c1ccc([N+](=O)[O-])o1)Nc1ncc(C(F)(F)F)cc1Cl | inconclusive: 7.38 µM [inhibitor, single point] | 
CC(C)(C)c1nc(SCC(=O)NCc2ccco2)c2ccccc2n1 | inconclusive: 7.38 µM [inhibitor, partial curve, poor fit] | 
CN(C(=O)CSc1nnc(-c2ccc(OC(F)F)cc2)n1N)C1CCS(=O)(=O)C1 (centres undefined) | inactive | 

SMILES | Potency | activity change, negative = inhibition
O=[N+]([O-])c1ccc(N2CCNCC2)c(S(=O)(=O)N2CCOCC2)c1 | inconclusive: 2.94 µM [inhibitor, single point] | 
CCSc1nc2c(c(=O)[nH]1)C(C(C)C)C(C#N)=C(N)O2 (centres undefined) | inconclusive: 18.5 µM [inhibitor, single point] | 
O=C(NCC1CCCO1)c1cc(-c2ccccc2)on1 (centres undefined) | inactive | 
COc1ccc(CCNC(=O)CCCOc2cccc(C)c2C)cc1OC | inconclusive: 4.65 µM [inhibitor, partial curve, poor fit] | 
NS(=O)(=O)c1ccc(NC(=O)Cn2ncc3c2-c2ccccc2OC3)cc1 | inconclusive: 4.65 µM [inhibitor, partial curve, poor fit] | 
N#Cc1ccc2c(c1)C[C@]1(CCCCN3C(=O)c4ccccc4C3=O)Oc3cc(-c4ccccc4)oc(=O)c3[C@H]2O1 | inconclusive: 1.51 µM [inhibitor, partial curve, poor fit] | 
CC(C)Oc1ccc(C2NC(=O)c3ccccc3O2)cc1 (centres undefined) | inconclusive: 18.5 µM [inhibitor, single point] | 
Cc1c(C)c2c(C)[nH]nc2oc1=O | inconclusive: 0.147 µM [inhibitor, full curve, poor fit] | 
CSCC(C)N1CCC(CCC(=O)NC2CC2)CC1 (centres undefined) | inactive | 
Cc1c(C(=O)NC(Cc2ccccc2)c2nc3ccccc3[nH]2)cccc1[N+](=O)[O-] (centres undefined) | inconclusive: 14.7 µM [inhibitor, partial curve, poor fit] | 
NS(=O)(=O)c1ccc(N2CCOCC2)c(C(=O)NCCCSc2ccccc2)c1 | inactive | 
O=c1oc2ccccc2cc1NCc1ccccc1O | inconclusive: 0.0033 µM [inhibitor, full curve, poor fit] | 
CCC(C)N(C(=O)Cn1nnc(-c2ccc(Cl)cc2)n1)C1CCS(=O)(=O)C1 (centres undefined) | inactive | 
COc1ccccc1N1C(=O)C2C(C(=O)c3ccccc3)=NN(c3ccc(C)cc3)C2C1=O (centres undefined) | inconclusive: 5.86 µM [inhibitor, single point] | 
NC(=S)Cc1ccc(Cl)cc1Cl | inactive | 
Cc1ccc(C)c2c(SC(C)C(=O)NCc3ccco3)nc(-c3ccccc3)nc12 (centres undefined) | inactive | 
c1ccc(COc2ccccc2CNCc2cccnc2)cc1 | inconclusive: 10.4 µM [inhibitor, single point] | 
CCN1C(Nc2ccccc2)=NC[C@@H]1CC(C)C | inactive | 
O=C(Cn1nnc2ccccc21)N1CCCCC1 | inactive | 
CCOC(=O)CSc1nc2c(sc(=S)n2Cc2ccco2)c(=O)n1-c1ccccc1 | inconclusive: 4.15 µM [inhibitor, partial curve, poor fit] | 
Cc1ccccc1NC(=O)Cn1cnc2c1c(=O)n(C)c(=O)n2C | inconclusive: 11.7 µM [inhibitor, single point] | 
CCNCCNc1ccc([N+](=O)[O-])c2cccnc12 | inconclusive: 18.5 µM [inhibitor, single point] | 
Cc1nnc(SCC(=O)Nc2nccs2)o1 | active: 13.1 µM | 

SMILES | Potency | activity change, negative = inhibition
CC1=C(C#N)c2nc(N)c(C#N)c(C)c2/C1=C\c1ccc(OCC(=O)O)c(Cl)c1 | inactive | 
O=C(CCSc1ccc(Cl)cc1)N1CCOCC1 | inactive | 
CC1(C)N=C(N)NC(Nc2cccc(Br)c2)=N1 | active: 1.17 µM | 
Cc1ccc(NC(=O)CCc2nnc3ccc(NCc4ccco4)nn23)cc1F | inconclusive: 18.5 µM [inhibitor, single point] | 
CC(=O)NCC(=O)NC1(C(=O)NC2CCCC2)CCCCC1 | inconclusive: 0.0033 µM [inhibitor, full curve, poor fit] | 
N#CC(C(=O)c1ccc(S(=O)(=O)N2CCCCCC2)cc1)c1nc2ccccc2[nH]1 (centres undefined) | inconclusive: 10.4 µM [inhibitor, single point] | 
CC(=O)c1sc(NC(=O)COc2ccc(C(C)C)c(C)c2)nc1C | inactive | 
CCn1c(C)cc(/C=C2/NC(=O)N(CC(=O)Nc3cccc(C)c3)C2=O)c1C | inconclusive: 18.5 µM [inhibitor, single point] | 
COCC(=O)n1nc(-c2ccccc2)nc1NCc1ccccc1 | inconclusive: 1.17 µM [inhibitor, full curve] | 
Cn1nnnc1SCC(=O)Nc1ccc(Cl)c(S(=O)(=O)N2CCOCC2)c1 | inconclusive: 10.4 µM [inhibitor, single point] | 
Cc1ccc(SCc2cc(=O)[nH]c(Nc3nc(C)c4cccc(C)c4n3)n2)cc1 | inconclusive: 6.57 µM [inhibitor, partial curve] | 
COc1cccc(Nc2nc3cc(OC)ccc3cc2C#N)c1 | active: 5.22 µM | 
CC(=O)Nc1ccc(NC(=O)CSc2cn(CC(=O)N3CCOCC3)c3ccccc23)cc1 | inconclusive: 8.28 µM [inhibitor, single point] | 
COc1ccc(C(=O)Nc2ccc(Br)cn2)cc1S(=O)(=O)N1CCOCC1 | inconclusive: 9.28 µM [inhibitor, partial curve, poor fit] | 
S=C(c1ccc(-c2cc(Cl)ccc2Cl)o1)N1CCCCC1 | inactive | 
Cc1cccc(Cl)c1NC(=O)N1CCCN(c2nc3ccc(Cl)cc3s2)CC1 | inconclusive: 20.8 µM [inhibitor, partial curve, poor fit] | 
Cc1cc2oc(=O)cc(CSc3nc(N)cc(N)n3)c2cc1C(C)C | inconclusive: 7.38 µM [inhibitor, partial curve, poor fit] | 
Cc1cc(C)cc(-n2ncc3c2CCCC3NC(=O)c2ccccc2N2CCOCC2)c1 (centres undefined) | inactive | 
COc1cccc(CNS(=O)(=O)c2ccc3c(c2)N(C(C)=O)CCO3)c1 | inconclusive: 1.04 µM [inhibitor, full curve] | 
Cc1ccc(S(=O)(=O)NC(=O)Nc2nnc(C)s2)cc1 | inactive | 
CCCCn1nc(C(=O)NCC(c2cccs2)N2CCOCC2)c2ccccc2c1=O (centres undefined) | inconclusive: 7.38 µM [inhibitor, partial curve, poor fit] | 
O=C(NC(=S)Nc1ccc(Cl)cn1)C12CC3CC(CC(C3)C1)C2 | inconclusive: 18.5 µM [inhibitor, single point] | 
Cc1cnc(CNC(=O)C2CCC(=O)N(Cc3ccc(Cl)cc3)C2)[nH]1 (centres undefined) | inconclusive: 11.7 µM [inhibitor, single point] | 

3 compounds already listed, arranged by length of the SMILES, falling.
SMILES | Potency | activity change, negative = inhibition
CCn1c(C)cc(/C=C2/NC(=O)N(CC(=O)Nc3cccc(C)c3)C2=O)c1C | inconclusive: 18.5 µM [inhibitor, single point] | 
COc1ccc(C(=O)Nc2ccc(Br)cn2)cc1S(=O)(=O)N1CCOCC1 | inconclusive: 9.28 µM [inhibitor, partial curve, poor fit] | 
S=C(c1ccc(-c2cc(Cl)ccc2Cl)o1)N1CCCCC1 | inactive | 
